Experimental data taken from PubChem BioAssay AID2685 (National Center for Advancing Translational Sciences (NCATS), 2010).
The campaign covered roughly 320,000 compounds. About 2,100 (0.66%) were called active. Inconclusive means that the source gave no clear call. Such entries were picked first, then a sample of the others. Calls come from the whole dose curve; as a rule, active = well fitted inhibition curve with a large enough effect in the signal ratio, with a control signal flat (not every such curve was filed as active); inconclusive = small, poorly fitted or top-dose-only effect, or effect the other way, or a change in a side signal; inactive = flat fitted curve, though single readings scatter; the % refers to the signal ratio. Potencies of inconclusive entries are doubtful fits and often do not repeat.

assay: qHTS Assay for Lipid Storage Modulators in Drosophila S3 Cells; conditions: BODIPY lipid droplet fluorescence, 18-24 h, cells fed with added oleic acid; lipid storage change, negative = inhibition: at 46.1 µM (top of the series) unless noted
Method in brief: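 Laser-scanning cytometry quantifies lipid droplet accumulation (500–530 nm total intensity; droplet/cell object ratio) in oleic acid-fed (400 uM added) Drosophila S3 cells treated with a concentration series. 20 uM Triacsin C defined 100% inhibition.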
% is set by controls: 0 for no effect and ±100 for the full control effect; potency is the fitted concentration of half-maximal effect.

Structure (SMILES)	Potency	lipid storage change, negative = inhibition
CCC1(C)NC(=O)N(CC(=O)c2cc(C)n(C3CC3)c2C)C1=O (stereo not given)	inconclusive: 25.9 µM [activator, single point]	
Cc1ccc2c(c1C)NC(=O)CC(c1ccccc1O)=N2		inconclusive: 15.2%
O=C(Nc1ccc(N2CCN(C(=O)c3ccco3)CC2)cc1)c1ccc(Br)cc1	inconclusive: 23.1 µM [activator, partial curve]	
O=C(O)/C=C/c1cn(Cc2ccccc2)nc1-c1ccc(Cl)cc1		inconclusive: 20.6%
COc1ccc(C(=O)OCCc2sc[n+](CC(=O)c3ccccc3)c2C)cc1		inactive
CCn1c(C)nc2cc(C#N)ccc21	inconclusive: 14.6 µM [rising, partial curve]	
CC(C)(C)c1ccc(OCCCNC2CCCC2)cc1		inconclusive: -15.8% [at 9.22 µM]
Cc1ccc(CCNC(=O)Cn2ccc3cc(S(=O)(=O)N4CCCC4)ccc32)cc1	inconclusive: 29.1 µM [falling, single point]	
CCn1c(SCC(=O)Nc2nc(-c3ccccc3)cs2)nnc1-c1ccccc1O		inconclusive: -11%
Cc1cc(=O)[nH]c(SCC(=O)Nc2nc3c(s2)CCCC3)n1		inactive
C/C(=N\NC(=O)c1cccs1)c1ccc2c(c1)OCO2	inconclusive: 0.116 µM [activator, single point]	
Cc1ccc2c(c1)COc1c3ccc(C(=O)NCC4CC4)cc3nn1-2		inconclusive: 5.07%
CN(CC1CCOCC1)C(=O)CC1C(=O)NCCN1Cc1ccccc1F (stereo not given)		inconclusive: -0.443%
O=C1/C(=C\c2ccco2)SC(=S)N1Cc1ccccc1		inconclusive: 20.6%
Cc1ccc(N2CCN(S(=O)(=O)c3nnc(NC(=O)c4ccccc4)s3)CC2)cc1		inconclusive: 22.9%
CCCc1cc(=O)[nH]c(SCC(=O)N(C)CC(=O)Nc2ccccc2CC)n1	inconclusive: 2.59 µM [falling, full curve, poor fit]	
CCCC(=O)Nc1cc(C)cn(Cc2c(F)cccc2Cl)c1=O		inconclusive: 0.145%
NC(=O)CC(NC(=O)Cc1ccc(Br)cc1)c1ccc(NC2CCCCCC2)c([N+](=O)[O-])c1 (stereo not given)		inconclusive: 14.2%
CC(Sc1nc(-c2ccccc2)cc(C(F)(F)F)n1)C(=O)Nc1ccc2c(c1)OCO2 (stereo not given)	inconclusive: 29.1 µM [falling, single point]	
CC(=O)c1sc(N/N=C/c2cccc([N+](=O)[O-])c2)nc1C		inconclusive: -100%
Nc1ccccc1-c1nnc(SCc2ccccc2F)[nH]c1=O	inconclusive: 16.4 µM [activator, partial curve]	
O=P(O)(O)c1ccccc1OCc1ccccc1		inconclusive: -11%
CCOC(=O)c1cc(CC)sc1NC(=O)CC1Sc2ccc(C(F)(F)F)cc2NC1=O (stereo not given)		inconclusive: 33.8%
O=C(CC1Sc2ncnn2C1=O)Nc1ccccc1 (stereo not given)	inconclusive: 29.1 µM [falling, single point]	
CCOc1ccccc1N1CC(C(=O)Nc2nccs2)CC1=O (stereo not given)		inconclusive: 23.2%

Ordered by molecular weight (low to high): part of the list above.
Structure (SMILES)	Potency	lipid storage change, negative = inhibition
CC(=O)c1sc(N/N=C/c2cccc([N+](=O)[O-])c2)nc1C		inconclusive: -100%
CCCC(=O)Nc1cc(C)cn(Cc2c(F)cccc2Cl)c1=O		inconclusive: 0.145%
CN(CC1CCOCC1)C(=O)CC1C(=O)NCCN1Cc1ccccc1F (stereo not given)		inconclusive: -0.443%

Later entries

Structure (SMILES)	Potency	lipid storage change, negative = inhibition
CCN(CC)C(=O)CSc1nc2c(sc(=S)n2-c2ccccc2)c(=O)[nH]1		inconclusive: 8.11%
COc1ccc(OC)c(NC(=O)c2cn(C)c(=O)c3cc(OC)c(OC)cc23)c1	inconclusive: 0.116 µM [activator, full curve, poor fit]	
CCc1ccccc1NC(=S)N1CCN(c2ccccn2)CC1		inconclusive: 14.9%
COc1ccc(S(=O)(=O)N2CCOCC2)cc1NC(=O)c1ccccc1C		inconclusive: 10.2%
O=C(N/N=C/c1ccc([N+](=O)[O-])o1)C1CC1		inconclusive: -28.7%
COc1cccc(OC)c1C(=O)N=c1sc2cc(S(C)(=O)=O)ccc2n1C		inconclusive: -6.26%
c1ccc(-c2nc3ccccn3c2NC2CCCC2)nc1		inconclusive: -49.1%
O=C(CNC(=O)c1ccc(Cl)c([N+](=O)[O-])c1)NCC1CCCO1 (stereo not given)		inconclusive: 71.1%
CC(=O)N1[C@H](Cc2ccccc2)C=C[C@]1(C)C(=O)NCc1ccccn1		inconclusive: 21.5%
CCCc1nnc(-c2cc(OC)c(OC)c(OC)c2)o1	inconclusive: 2.59 µM [activator, full curve, poor fit]	
O=C(O)CCC1(CCC(=O)O)c2ccccc2-c2ccccc21		inconclusive: 15.1%
O=P(CCNCc1ccco1)(c1ccccc1)c1ccccc1		inconclusive: -31.1%
OC(CNCc1ccc(Cl)cc1)C(F)(F)F (stereo not given)		inconclusive: -34.5%
COC(=O)c1ccc(OCc2nn[nH]n2)cc1		inconclusive: 62.6%
O=C(Nc1ccc(S(=O)(=O)N2CCCCC2)cc1)c1ccc(CN2CCc3ccccc3C2)cc1	active: 18.4 µM	
CCOC(=O)c1ccc(NC(=O)C2=C(C)Nc3nc(CCCO)nn3C2c2cccc(C)c2)cc1 (stereo not given)		inconclusive: 36.1%
CC(SCc1ccccc1)C(=O)Nc1ccccc1Br (stereo not given)	inconclusive: 29.1 µM [activator, single point]	
CC(NC(=O)c1ccc2c(c1)OCO2)c1cccc(C(F)(F)F)c1 (stereo not given)		inconclusive: 7.95%
Cc1ccc(NC(=O)CN2CCC(Cc3ccccc3)CC2)cc1S(=O)(=O)N(C)C		inconclusive: 54.7%
COc1ccc2[nH]c(=O)c(CN(C3CCCCC3)C(c3nnnn3Cc3ccco3)C(C)C)cc2c1 (stereo not given)		inconclusive: 16.7%
Cc1nn(-c2ccccc2)c2c1C1(C(=O)N(C(C)C)c3ccccc31)C(C#N)=C(N)O2 (stereo not given)		inconclusive: 119%
O=C(Nc1ccc(Cl)cc1)C1CC2CCCC(C1)C2=O (stereo not given)		inconclusive: 4.18%
CCCCn1nc2cc(C(=O)NCc3cc(C(F)(F)F)cc(C(F)(F)F)c3)ccc2c1OCC		inconclusive: 33%
CN(C)c1ccc(NC(=O)CSc2nnc(-c3cnccn3)n2C)cc1	inconclusive: 29.1 µM [activator, single point]	
C=CCn1c(SCC(=O)Nc2cc(C)cc(C)c2)nnc1-c1cnccn1		inconclusive: -1.38%
